Measurements reported in the supplement of paper PMC12823440, “Inhibitors supercharge kinase turnover through native proteolytic circuits” (Nature, 2025).
Where a name gives a salt, the structure may show the parent alone. Some of the results follow. Hit calls seldom repeat between salt and free forms of one compound.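 Kinases, fused to nanoluciferase, were expressed in K562 cells; luminescence was measured every 4 h from 2 to 18 h as percent of control (DMSO = 100%, positive control = 0%). A time point is decreased if signal falls significantly (2 sigma). Hits were called by the authors by a rule that is not shown; the count of time points alone does not decide it.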

Protein sequences, listed by entry. Tags and fused reporters are not part of them. Lines headed by an entry give the natural chain unless they say otherwise; changes in a name come on top.
UniProt Q13131: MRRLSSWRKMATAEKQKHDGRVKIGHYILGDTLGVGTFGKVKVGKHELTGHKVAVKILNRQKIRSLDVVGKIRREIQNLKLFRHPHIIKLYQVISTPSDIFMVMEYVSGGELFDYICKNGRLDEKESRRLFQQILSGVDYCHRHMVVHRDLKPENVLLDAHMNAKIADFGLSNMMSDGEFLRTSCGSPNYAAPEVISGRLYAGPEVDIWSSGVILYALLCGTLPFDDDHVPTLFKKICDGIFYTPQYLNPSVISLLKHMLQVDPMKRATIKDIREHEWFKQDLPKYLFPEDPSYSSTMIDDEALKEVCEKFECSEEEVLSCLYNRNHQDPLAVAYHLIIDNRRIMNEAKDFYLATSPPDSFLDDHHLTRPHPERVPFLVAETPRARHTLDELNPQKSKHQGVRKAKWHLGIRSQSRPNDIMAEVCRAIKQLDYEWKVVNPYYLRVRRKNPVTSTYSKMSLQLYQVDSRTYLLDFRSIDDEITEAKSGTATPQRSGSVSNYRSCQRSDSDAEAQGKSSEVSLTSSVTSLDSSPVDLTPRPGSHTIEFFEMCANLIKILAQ

Target: PRKAA1 (UniProt Q13131)
Experiment: kinase-Nluc reporter destabilization hit call (1 = scored as downregulated) (binary); higher = compound decreases kinase abundance
Conditions: 2.5 µM; K562; 2-18 h

kinase-Nluc reporter destabilization hit call, inactive:
CN1CCCN(C(=O)c2cccc(-c3ccc(/C=C4/C(=O)Nc5ccc(Cl)cc54)o3)c2)CC1 [CX-6258 (hydrochloride)] 0, Clc1ccc(C2(c3ccc(-c4cn[nH]c4)cc3)CCNCC2)cc1 [AT7867 (dihydrochloride)] 0, CC(C)Oc1ccc(-c2nn([C@@H](C)c3oc4ccc(F)cc4c(=O)c3-c3cccc(F)c3)c3ncnc(N)c23)cc1F [Umbralisib] 0, C=CC(=O)Nc1cc(Nc2nccc(-c3cn(C)c4ccccc34)n2)c(OC)cc1N(C)CCN(C)C [Osimertinib] 0, COc1cc2c(Oc3ccc4[nH]c(C)cc4c3F)ncnc2cc1OCCCN1CCCC1 [Cediranib (maleate)] 0, CC(C)Oc1ccc(-c2nn([C@@H](C)c3oc4ccc(F)cc4c(=O)c3-c3cccc(F)c3)c3ncnc(N)c23)cc1F [Umbralisib (hydrochloride)] 0, COc1ccc(S(=O)(=O)N(CCO)c2ccccc2CN(C)C/C=C/c2ccc(Cl)cc2)cc1 [KN-93 (hydrochloride)] 0, C=CC(=O)N1CCN(c2ncnc3c(F)c(-c4c(O)cccc4F)c(Cl)cc23)CC1 0, COc1ccc(S(=O)(=O)Nc2ccccc2CN(C)C/C=C/c2ccc(Cl)cc2)cc1 [KN-92 (hydrochloride)] 0, CCN(CC)Cc1ccc(OC)c(-c2cc3c(-c4ccc(C(=O)O)c(C(C)C)c4)ccnc3[nH]2)c1 0, CN(C)C/C=C/C(=O)Nc1cc2c(Nc3ccc(F)c(Cl)c3)ncnc2cc1O[C@H]1CCOC1 [Afatinib (dimaleate)] 0, Oc1cccc(-c2nc(N3CCOCC3)c3oc4ncccc4c3n2)c1 [PI-103 (Hydrochloride)] 0, c1cc(-c2cnn3cc(-c4ccc(OCCN5CCCCC5)cc4)cnc23)ccn1 [Dorsomorphin] 0, COc1ccc(S(=O)(=O)N(CCO)c2ccccc2CN(C)C/C=C/c2ccc(Cl)cc2)cc1 [KN-93 (phosphate)] 0, Nc1ncnc2c1c(-c1ccc(Oc3ccccc3)cc1)nn2[C@@H]1CCCNC1 [IBT6A (hydrochloride)] 0

Same assay, conditions: 10 µM; K562; 2-18 h

kinase-Nluc reporter destabilization hit call, inactive:
COc1cc2nccc(Oc3ccc(NC(=O)C4(C(=O)Nc5ccc(F)cc5)CC4)cc3)c2cc1OC [Cabozantinib (S-malate)] 0, Cn1cc(-c2cnc3ccc4ccc(CS(=O)(=O)NCc5ccccn5)cc4c(=O)c3c2)cn1 [MK-8033 (hydrochloride)] 0, CNC(=O)c1ccc(Nc2ncc(C(F)(F)F)c(NCc3nccnc3N(C)S(C)(=O)=O)n2)cc1 [Defactinib] 0, N#CCNC(=O)c1ccc(-c2ccnc(Nc3ccc(N4CCOCC4)cc3)n2)cc1 [Momelotinib] 0, CC(=O)c1c(C)c2cnc(Nc3ccc(N4CCNCC4)cn3)nc2n(C2CCCC2)c1=O [Palbociclib (isethionate)] 0, Nc1cncc(-c2cn3ccnc3c(Nc3ccc(N4CCN(C5COC5)CC4)cc3)n2)n1 [Lanraplenib (succinate)] 0, C#Cc1cccc(Nc2ncnc3cc4c(cc23)OCCOCCOCCO4)c1 [Icotinib] 0, O=C(O)c1ccc2c(c1)nc(Nc1cccc(Cl)c1)c1ccncc12 [Silmitasertib (sodium salt)] 0, CC(C)Nc1cc(-c2c[nH]c(C(=O)N[C@H](CO)c3cccc(Cl)c3)c2)c(Cl)cn1 [Ulixertinib (hydrochloride)] 0, C=CC(=O)N1CCN(c2ncnc3c(F)c(-c4c(O)cccc4F)c(Cl)cc23)CC1 0, CN(C)C(=O)c1cc2cnc(Nc3ccc(N4CCNCC4)cn3)nc2n1C1CCCC1 [Ribociclib] 0, COc1cc2c(-c3cnn4cc(N5CCC(N6CCN(C)CC6)CC5)cnc34)ccnc2cc1F [ALK2-IN-4 (succinate)] 0, CCN(CC)Cc1ccc(OC)c(-c2cc3c(-c4ccc(C(=O)O)c(C(C)C)c4)ccnc3[nH]2)c1 0, O=C(c1nn(-c2ccc(CN3CCOCC3)cc2)c2c1CS(=O)(=O)c1c(F)cccc1-2)N1CCOCC1 0, CC(C)(C)n1nc(-c2cccc3ccccc23)c2c(N)ncnc21 [1-Naphthyl PP1 (hydrochloride)] 0, CCN(CC)CC(=O)Nc1c(C)cccc1C [Lidocaine (hydrochloride)] 0, Cn1ncc(Cl)c1-c1cc(C(=O)N[C@H](CN)Cc2cccc(F)c2)sc1Cl [Afuresertib (hydrochloride)] 0, COc1cc2c(cc1OC)-c1c(C)c3ccc(OC)c(OC)c3c[n+]1CC2 [Dehydrocorydaline] 0, C[C@H](CCC(=O)NCCS(=O)(=O)O)[C@H]1CC[C@H]2[C@@H]3[C@@H](O)C[C@@H]4C[C@H](O)CC[C@]4(C)[C@H]3CC[C@]12C [Tauroursodeoxycholate (dihydrate)] 0, OCCn1cc(-c2cnc3nnn(Cc4ccc5ncccc5c4)c3n2)cn1 0, C[S+]([O-])c1ccc(-c2nc(-c3ccc(F)cc3)c(-c3ccncc3)[nH]2)cc1 (configuration not stated) 0, CC(C)(C)n1nc(-c2cccc3ccccc23)c2c(N)ncnc21 [1-Naphthyl PP1] 0
